From article PMC12660616
These are yes or no findings as the source states them, for the method shown. In cells and extracts the contact can be indirect. Some results given as binding are weak or reduced against the parent protein; the word gives no strength.

Chains of the proteins cited; added tags and fusions are not shown. Residues count along the entry.
UniProt Q8TDQ0, residues 22-301: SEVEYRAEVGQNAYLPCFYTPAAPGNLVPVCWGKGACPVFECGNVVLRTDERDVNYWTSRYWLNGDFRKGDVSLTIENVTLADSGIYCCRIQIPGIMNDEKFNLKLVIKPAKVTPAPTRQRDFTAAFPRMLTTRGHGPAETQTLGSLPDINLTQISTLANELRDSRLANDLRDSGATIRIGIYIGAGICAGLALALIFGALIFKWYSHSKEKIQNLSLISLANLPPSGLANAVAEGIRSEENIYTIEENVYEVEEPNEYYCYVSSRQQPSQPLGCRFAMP

Molecular target: T-cell immunoglobulin and mucin domain-containing protein 3 (human (endogenous in HaCaT)) (UniProt Q8TDQ0)
Experiment: co-IP; HaCaT cell lysate incubated overnight at 4 °C with 10 µg anti-TIM3 antibody, protein A/G magnetic beads, five washes with TBST, western blotting; legend speaks of cells following TIM3 knockdown

binding: binds
Substance: Galectin 9 (from UniProt O00182 1-355) (ligand)
